Measured values from the supplement of paper PMC12067093, “Discovery and optimisation of a covalent ligand for TRIM25 and its application to targeted protein ubiquitination” (Chemical Science, 2025).
Some of the results follow.

Sequences of proteins named here, by UniProt entry; tags and fusion partners are left off. A change or cut given only in a name is not applied to a line headed by its entry.
UniProt P62318, whole entry, looked up: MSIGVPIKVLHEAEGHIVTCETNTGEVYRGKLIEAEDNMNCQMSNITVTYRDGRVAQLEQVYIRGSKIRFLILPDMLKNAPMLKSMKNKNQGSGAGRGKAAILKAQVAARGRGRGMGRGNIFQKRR
UniProt Q8N0X7: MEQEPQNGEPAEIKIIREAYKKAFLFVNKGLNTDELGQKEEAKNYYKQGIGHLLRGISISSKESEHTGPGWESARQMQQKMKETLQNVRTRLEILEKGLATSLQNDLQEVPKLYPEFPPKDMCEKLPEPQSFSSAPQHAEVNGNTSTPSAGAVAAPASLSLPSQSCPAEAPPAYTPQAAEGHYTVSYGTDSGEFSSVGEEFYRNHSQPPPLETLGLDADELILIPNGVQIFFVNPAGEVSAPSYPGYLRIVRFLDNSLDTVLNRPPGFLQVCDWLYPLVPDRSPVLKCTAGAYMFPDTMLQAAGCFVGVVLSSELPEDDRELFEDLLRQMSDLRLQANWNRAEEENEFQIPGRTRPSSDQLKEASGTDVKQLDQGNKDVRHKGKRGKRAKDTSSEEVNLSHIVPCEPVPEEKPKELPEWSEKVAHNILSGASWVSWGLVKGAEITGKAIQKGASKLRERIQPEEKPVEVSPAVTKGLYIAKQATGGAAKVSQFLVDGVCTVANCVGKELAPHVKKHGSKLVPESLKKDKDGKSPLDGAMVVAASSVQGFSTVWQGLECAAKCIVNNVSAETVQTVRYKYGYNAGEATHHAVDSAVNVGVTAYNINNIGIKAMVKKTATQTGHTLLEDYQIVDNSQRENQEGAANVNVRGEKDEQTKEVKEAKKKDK

What was measured:
[1] = target: SNRPD3_P62318_20_VLHEAEGHIVTCETNTGEVYR (UniProt P62318); assay: probe-labelled cysteine peptide fold change vs DMSO (competition) (log2 fold change); higher = less target engagement (more negative = stronger competition); settings: THP-1, incubation time: 4 h
[2] = target: SPART_Q8N0X7_405_DTSSEEVNLSHIVPCEPVPEEKPK (UniProt Q8N0X7); assay: as above; settings: THP-1, incubation time: 4 h
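Also: competitive profiling in live THP-1 cells: cysteine peptides tagged with an iodoacetamide desthiobiotin (IA-DTB) probe, intensity after compound treatment relative to DMSO-treated cells.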

Cc1cc(C(=O)N2CCCN(C(=O)CCl)CC2)ccc1-c1ccccc1 [compound 10]
probe-labelled cysteine peptide fold change ([1]; 10 µM): -0.0144 | probe-labelled cysteine peptide fold change ([1]; 50 µM): 0.0858 | probe-labelled cysteine peptide fold change ([2]; 10 µM): -0.391 | probe-labelled cysteine peptide fold change ([2]; 50 µM): -0.305
